Data published in article PMC8847198, “The Influence of AA29504 on GABAA Receptor Ligand Binding Properties and Its Implications on Subtype Selectivity” (Neurochemical Research, 2021).

Test system: GABAARs in δKO mouse forebrain membranes
Assay: Saturation analysis of [^3H]muscimol binding, δKO forebrain membranes
Protocol: WT and δKO forebrain membranes were prepared using the method of Squires and Saederup as modified by Uusi-Oukari et al.. Homogenized and washed membranes were suspended in 10 mM Tris–HCl, pH 7.4 and stored at -70 °C.
The effect of AA29504 on the association and dissociation of [^3H]muscimol binding was measured essentially as described by Benkherouf et al.. Saturation analysis of [^3H]muscimol was performed essentially as described by Uusi-Oukari and Korpi. Triplicate samples of the membranes were incubated in assay buffer with a concentration series of [^3H]muscimol (1–50 nM) at room temperature (22 °C) for 60 min in the absence and presence of 10 µM AA29504. […] .
GraphPad Prism software (GraphPad, San Diego, CA, USA) was used for nonlinear least squares curve-fitting and statistical testing of association, dissociation, saturation binding and radioligand displacement data. The association and dissociation curves were used for the estimation of association (Kon) and dissociation (Koff) rate constants. Saturation binding curves were used for the estimation of total number of high-affinity binding sites (Bmax), and equilibrium dissociation constants (KD). […] . Statistical comparisons were made with One-way ANOVA, Two-way ANOVA or Brown-Forsythe and Welch ANOVA followed by the relevant (Tukey’s or Dunnett’s) post hoc tests for multiple comparisons. […] . […]

## [3H]C([3H])(N)c1cc(=O)[nH]o1 [[^3H]muscimol]
With AA29504 (10 µM), 22 °C
  Bmax: 8.1 ± 0.6 pmol/mg protein
Without AA29504, 22 °C
  Bmax: 6.1 ± 0.6 pmol/mg protein
